Measurements: article PMC5067693
Results are given in words; binding and its absence hold for the method and conditions named. In cells and extracts the contact can be indirect. Some entries that bind do so weakly or less than the wild type.

Chains of the proteins cited; added tags and fusions are not shown.
UniProt Q8VI67: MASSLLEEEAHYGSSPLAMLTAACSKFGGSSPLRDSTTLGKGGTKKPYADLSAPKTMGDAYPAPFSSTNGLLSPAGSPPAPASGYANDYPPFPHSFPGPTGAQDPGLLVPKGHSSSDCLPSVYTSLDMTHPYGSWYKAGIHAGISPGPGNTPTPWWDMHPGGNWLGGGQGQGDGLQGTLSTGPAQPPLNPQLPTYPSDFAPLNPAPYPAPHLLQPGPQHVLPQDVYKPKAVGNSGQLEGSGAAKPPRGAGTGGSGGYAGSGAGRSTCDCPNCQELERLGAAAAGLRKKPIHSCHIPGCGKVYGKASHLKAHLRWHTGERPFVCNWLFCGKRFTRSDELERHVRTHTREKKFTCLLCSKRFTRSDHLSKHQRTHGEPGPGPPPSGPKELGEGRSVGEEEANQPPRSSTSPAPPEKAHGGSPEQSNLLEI
UniProt P37238: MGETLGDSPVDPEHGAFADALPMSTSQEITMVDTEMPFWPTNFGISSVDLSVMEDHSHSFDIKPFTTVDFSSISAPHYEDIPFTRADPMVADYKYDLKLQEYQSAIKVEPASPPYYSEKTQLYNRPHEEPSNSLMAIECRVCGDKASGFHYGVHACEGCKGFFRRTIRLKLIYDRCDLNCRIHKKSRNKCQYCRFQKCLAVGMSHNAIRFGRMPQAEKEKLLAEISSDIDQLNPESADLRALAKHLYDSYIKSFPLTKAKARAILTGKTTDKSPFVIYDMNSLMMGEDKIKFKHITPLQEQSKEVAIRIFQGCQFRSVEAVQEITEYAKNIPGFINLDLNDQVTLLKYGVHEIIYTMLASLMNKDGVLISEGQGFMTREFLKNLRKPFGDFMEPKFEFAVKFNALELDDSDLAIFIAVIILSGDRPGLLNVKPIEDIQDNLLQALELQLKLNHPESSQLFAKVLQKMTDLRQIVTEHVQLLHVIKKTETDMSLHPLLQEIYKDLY

Legend:
[1] = target: GST-tagged Osterix (mouse) (UniProt Q8VI67); assay: pull-down; purified GST-Osx incubated with HA-tagged PPARγ constructs overexpressed in 3T3-L1 cells (the legend calls them purified), in separate reactions; bound proteins identified by western blot; only the target purified
[2] = target: Endogenous PPARγ (mouse (endogenous in 3T3-L1)) (UniProt P37238); assay: co-IP; 3T3-L1 cells transfected with Myc-Osterix or empty Myc vector, cultured 3 days in MDI differentiation medium; IP with PPARγ antibody, IB with Myc antibody
[3] = target: HA-PPARγ (UniProt P37238); assay: co-IP; 3T3-L1 cells transfected with the indicated plasmids; whole cell extracts; IP with HA antibody, western blot with Myc or HA antibodies; lysis buffer 1% NP-40, 25 mM HEPES pH 7.5, 150 mM NaCl, 0.25% sodium deoxycholate

HA-PPARγ (from UniProt P37238 1-505)
binding [1]: binds

Myc-Osterix (from UniProt Q8VI67 1-428)
binding [2]: binds
binding [3]: binds
